# According to patent US20090117549:
# For at least one entry, the source does not settle the construct or the ends of the probe. Results from cells or extracts need not show a direct contact. For some of these results: Negatives hold for the conditions tested. Where a protein sequence is shown, tags need not be part of it.
# Legend:
# [1] = molecular target: T1, PTK7 transcript variant PTK7-1, transfected into Ramos or Toledo cells (Homo sapiens) (UniProt Q13308); experiment: flow cytometry; conditions: Ramos and Toledo cells gain sgc8 binding after PTK7 transfection, linear with anti-PTK7-PE signal; protein on the cell surface; protein details: full-length cDNA in pCMV6-XL4, OriGene; label: FITC; single-stranded DNA
# T1 sequence (looked up, limits assumed): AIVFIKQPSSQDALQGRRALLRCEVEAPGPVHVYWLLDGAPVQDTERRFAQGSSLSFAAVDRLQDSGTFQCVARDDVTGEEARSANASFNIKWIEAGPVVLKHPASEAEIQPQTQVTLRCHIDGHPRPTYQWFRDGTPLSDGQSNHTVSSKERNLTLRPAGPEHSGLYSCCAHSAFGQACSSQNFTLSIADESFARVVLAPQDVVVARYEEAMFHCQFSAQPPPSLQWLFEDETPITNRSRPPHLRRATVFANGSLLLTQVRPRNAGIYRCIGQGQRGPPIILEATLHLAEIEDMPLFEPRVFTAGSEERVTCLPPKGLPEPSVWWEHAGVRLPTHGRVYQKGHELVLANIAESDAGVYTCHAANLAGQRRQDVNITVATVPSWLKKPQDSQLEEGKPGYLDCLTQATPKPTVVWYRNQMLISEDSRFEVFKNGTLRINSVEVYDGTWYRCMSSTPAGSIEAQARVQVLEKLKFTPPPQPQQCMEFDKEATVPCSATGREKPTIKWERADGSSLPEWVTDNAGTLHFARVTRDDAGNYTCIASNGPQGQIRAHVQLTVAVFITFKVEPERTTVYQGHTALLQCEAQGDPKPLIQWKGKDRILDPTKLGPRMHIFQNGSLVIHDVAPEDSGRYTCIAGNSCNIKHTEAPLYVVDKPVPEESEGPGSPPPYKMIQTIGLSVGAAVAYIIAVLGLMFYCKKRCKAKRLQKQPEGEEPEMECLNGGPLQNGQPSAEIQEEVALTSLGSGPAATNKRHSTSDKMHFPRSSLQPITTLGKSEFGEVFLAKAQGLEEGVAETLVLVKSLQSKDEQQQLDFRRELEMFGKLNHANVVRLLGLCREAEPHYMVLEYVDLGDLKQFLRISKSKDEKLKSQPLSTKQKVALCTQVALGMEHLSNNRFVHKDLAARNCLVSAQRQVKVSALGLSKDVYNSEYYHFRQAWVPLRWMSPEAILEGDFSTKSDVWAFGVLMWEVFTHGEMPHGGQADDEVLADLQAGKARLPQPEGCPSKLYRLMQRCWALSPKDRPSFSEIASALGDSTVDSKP
# [2] = molecular target: T2, PTK7 (protein tyrosine kinase 7, CCK-4), endogenous on CCRF-CEM cells (Homo sapiens) (UniProt Q13308); experiment: flow cytometry; conditions: apparent Kd on whole CCRF-CEM cells; PTK7 later identified as target; 5 mM MgCl2, 20% FBS, tRNA, BSA, on ice; protein on the cell surface; label: FITC; single-stranded DNA
# T2 sequence (looked up, limits assumed): T1 sequence (looked up, limits assumed)
# [3] = molecular target: T3, PTK7 (isoform PTK7-5 hit by LC-MS/MS) from CCRF-CEM membrane extract (Homo sapiens) (UniProt Q13308); experiment: pull-down; conditions: protein in an extract, label: biotin, single-stranded DNA
# T3 sequence (looked up, limits assumed): T1 sequence (looked up, limits assumed)
sequence,measurement,setting,value
ATACCAGCTTATTCAATTAGTCACACTTAGAGTTCTAACTGCTGCGCCGCCGGGAAAATACTGTACGGTTAGATAGTAAGTGCAATCT [sgc8],binding result,[1],binds
same,Kd,[2],0.8 nM
ATCTAACTGCTGCGCCGCCGGGAAAATACTGTACGGTTAGA [sgc8c],binding result,"[3]; 5'-biotin followed by four 18-atom ethylene glycol spacers, PBS, 5 mM MgCl2, 1% Triton X-100, 4 C, band identified by LC-MS/MS, variant of sgc8",binds
TACCCCTTTAATCCCAAACCC [Rb1 non-binding sequence],binding result,"[3]; 5'-biotin, non-binding control, characteristic band absent by comparison",no binding
